Results taken from paper doi:10.1101/2021.05.03.442391.
Read-outs that look alike come from different tables or passages of the source. Results are given in words; binding and its absence hold for the method and conditions named. Binding seen in cells or lysates may run through a third protein. Some results given as binding are weak or reduced against the parent protein; the word gives no strength. Sequences can lack the tags named with a protein.

By UniProt entry, the sequences of proteins in these tests, tags left out.
UniProt Q9CW03: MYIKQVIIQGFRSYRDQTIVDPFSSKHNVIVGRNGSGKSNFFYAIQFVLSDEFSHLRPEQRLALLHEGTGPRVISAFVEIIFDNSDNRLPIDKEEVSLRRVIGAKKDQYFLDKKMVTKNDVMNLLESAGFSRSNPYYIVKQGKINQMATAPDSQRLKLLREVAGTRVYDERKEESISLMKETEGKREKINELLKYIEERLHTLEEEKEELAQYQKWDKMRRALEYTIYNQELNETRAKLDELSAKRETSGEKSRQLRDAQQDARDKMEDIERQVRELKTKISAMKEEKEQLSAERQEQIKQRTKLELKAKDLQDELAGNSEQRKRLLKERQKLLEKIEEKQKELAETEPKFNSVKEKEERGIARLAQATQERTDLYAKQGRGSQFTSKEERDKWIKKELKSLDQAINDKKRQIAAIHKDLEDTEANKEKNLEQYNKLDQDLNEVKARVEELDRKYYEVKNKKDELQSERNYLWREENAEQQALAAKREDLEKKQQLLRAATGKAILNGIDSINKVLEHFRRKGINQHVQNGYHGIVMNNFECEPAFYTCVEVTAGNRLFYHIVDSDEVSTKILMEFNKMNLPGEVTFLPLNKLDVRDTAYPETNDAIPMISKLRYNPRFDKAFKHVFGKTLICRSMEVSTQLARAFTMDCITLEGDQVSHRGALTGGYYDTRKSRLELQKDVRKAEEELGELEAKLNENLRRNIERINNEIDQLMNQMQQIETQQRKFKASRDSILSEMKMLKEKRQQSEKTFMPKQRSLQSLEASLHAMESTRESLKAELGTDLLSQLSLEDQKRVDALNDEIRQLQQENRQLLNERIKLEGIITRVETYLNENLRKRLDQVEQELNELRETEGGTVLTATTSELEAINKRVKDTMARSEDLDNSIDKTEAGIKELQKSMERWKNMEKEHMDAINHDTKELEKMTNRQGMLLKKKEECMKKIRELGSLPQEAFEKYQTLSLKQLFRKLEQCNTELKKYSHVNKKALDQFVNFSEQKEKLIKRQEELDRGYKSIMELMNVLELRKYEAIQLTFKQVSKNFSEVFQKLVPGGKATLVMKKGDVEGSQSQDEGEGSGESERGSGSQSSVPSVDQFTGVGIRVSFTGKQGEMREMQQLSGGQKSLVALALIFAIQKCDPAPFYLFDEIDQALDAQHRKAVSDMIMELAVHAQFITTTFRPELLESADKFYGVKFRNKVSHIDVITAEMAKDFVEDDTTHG

B1: RAD21 (protein, UniProt Q61550 1-635)
chain: MFYAHFVLSKRGPLAKIWLAAHWDKKLTKAHVFECNLESSVESIISPKVKMALRTSGHLLLGVVRIYHRKAKYLLADCNEAFIKIKMAFRPGVVDLPEENREAAYNAITLPEEFHDFDQPLPDLDDIDVAQQFSLNQSRVEEITMREEVGNISILQENDFGDFGMDDREIMREGSAFEDDDMLVSTSASNLLLEPEQSTSNLNEKMNHLEYEDQYKDDNFGEGNDGGILDDKLISNNDGGIFDDPPALSEAGVMLPEQPAHDDMDEDDNGSLGGPDSPDSVDPVEPMPTMTDQTTLVPNEEEAFALEPIDITVKETKAKRKRKLIVDSVKELDSKTIRAQLSDYSDIVTTLDLAPPTKKLMMWKETGGVEKLFFLPAQPLWNNRLLKLFTRCLTPLVPEDLRKRRKGGEADNLDEFLKEFENPEVPREEQQPQQQQPQPQRDVIDEPIIEEPSRLQDSVMEASRTTIEESAMPPPPPQGVKRKAGQIDPEPSIPPQQVEQMEIPPVELPPEEPPNICQLIPELELLPEKEKEKEKEKEEEEEEEDEDASGGDQDQEERRWNKRTQQMLHGLQRALAKTGAESISLLELCRNTNRKQAAAKFYSFLVLKKQQAIELTQEEPYSDIIATPGPRFHII
B2: REC8 (protein, UniProt Q8C5S7 1-591)
chain: MFYYPNVLQRHTGCFATIWLAATRGSRLVKREYLNVNVVKTCEEILNYVLVRVQPPVAGLPRPRFSLYLSAQLQIGVIRVYFQQCQYLVEDIQHILEHLHRAQLRIRIDMEEADLPSLLLPNCLAMMETLEDAPEPFFGKMSVDPRLPSPFDIPQIRHLLEAATPEKTRKETLPEATPDPRKPDRTLATVQSPEVITLQEAEPIRMLQIEGEQDLPEISRGDLELLIAEKDDAILLEERQRGRLLRQRRASLPLDESREEPRALEGAGLVSALSPPAPAQVEGIQEALPGQVFPPEVQKMTGWEPGALLTEVTPPQELRLPAPPSTEKRLPSLQRPLPRRHRRRQLLFWDKETQISREKFEEQLQTGAHCWEYPVAQPPKRMLTSPAELFRTPTLSGWLPPELLGLWTHCAQVPQRMLRQRPQLETEETVEEERAADEEERRKTEALSEIEVLREAQEPSGPLMLSSELSLEAAEDEKSRTSLIPPEWWAWSEEGQPEPPALPMLPELPEVPMEMPPRPELSSEAVLRAVALKLQANKELDFSSLVPPLSPRKLASRVFYLLLVLSTQKILLVEQQKPYGPLLIRPGPKFP
B3: STAG3 (protein, UniProt O70576 1-1240)
chain: MPTLWSPSTQHHGSSSGSESSPLQKSVRRAQMALSPCSSSILPCDDRDSQGTAEWDSPSTNEDSDFEDSLRRNVKKRAAKQPPKAVPAAKHRKKQSRIVSSGNGKNESVPSTNYLFDAVKAARSCMQSLVDEWLDNYKQDENAGFLELINFFIRACGCKSTVTPEMFKTMSNSEIIQHLTEEFNEDSGDYPLTAPGPSWKKFQGSFCEFVKTLVYQCQYSLLYDGFPMDDLISLLIGLSDSQVRAFRHTSTLAAMKLMTSLVKVALQLSLHKDNNQRQYEAERNKGPEQRAPERLESLLEKRKEFQENQEDIEGMMNAIFRGVFVHRYRDILPEIRAICIEEIGYWMQSYSTSFLNDSYLKYIGWTLHDKHKEVRLKCVKALAGLYSNQELSLRMELFTNRFKDRMVSMVMDRECEVAVEAIRLLTLILKNMEGVLTSADCEKIYSIVYISNRAMASSAGEFVYWKIFHPECGAKAVSDRERRRSPQAQKTFIYLLLAFFMESEHHNHAAYLVDSLWDCAGSYLKDWESLTNLLLQKDQNLGDMQERMLIEILVSSARQAAEGHPPVGRITGKKSLTAKERKLQAYDKMKLAEHLIPLLPQLLAKFSADAENVAPLLQLLSYFDLSIYCTQRLEKHLELLLQQLQEVVVKHVEPEVLEAAAHALYLLCKPEFTFFSRVDFARSQLVDFLTDRFQQELDDLMQSSFLDEDEVYSLTATLKRLSAFYNAHDLTRWEISEPCSRLLRKAVDTGEVPHQVILPALTLVYFSILWTVTHISESTSHKQLMSLKKRMVAFCELCQSCLSDVDPEIQEQAFVLLSDLLLIFSPQMIVGGRDFLRPLVFFPEATLQSELASFLMDHVFLQPGELGNGQSQEDHVQIELLHQRRRLLAGFCKLLLYGVLELDAASDVFKHYNKFYEDYGDIIKETLTRARQIDRCQCSRILLLSLKQLYTELIQEQGPQGLTELPAFIEMRDLARRFALSFGPQQLHNRDLVVMLHKEGIKFSLSELPPAGSSHEPPNLAFLELLSEFSPRLFHQDKRLLLSYLEKCLQRVSKAPNHPWGPVTTYCHSLHPLEITAEASPRGPPHSKKRCVEGPCRPQEEESSSQEESLQLNSGPTTPTLTSTAVKRKQSLRTVGKKQKGRPGPGPGPGPELICSQQLLGTQRLKMSSAPCFQIRCDPSGSGLGKQLTRLSLMEEDEEEELRLLDEEWQRGDKMLHSPSSPSEHGLDLLDTTELNMEDF
B4: STAG3, O70576 1-1240 (protein)
chain: B3 chain

Legend:
Assay in all cases: co-IP
[1] = biological target: SMC3 (mouse (endogenous in J1 ESCs and C57BL/6J testis)) (UniProt Q9CW03)
[2] = biological target: SMC3 (mouse (endogenous in J1 ESCs and C57BL/6J testis)) (UniProt Q9CW03); remark: listed apart in the source
[3] = biological target: T1, REC8 (mouse (endogenous in J1 ESCs and C57BL/6J testis)) (UniProt Q8C5S7)
T1 sequence: B2 chain

[4] = biological target: T2, RAD21 (mouse (endogenous in J1 ESCs and C57BL/6J testis)), Q61550; settings: remark: other sources report otherwise
T2 chain: B1 chain

Binder	binding [1]	binding [2]	binding [3]	binding [4]
B1	binds	binds		
B2	binds	binds		
B3	binds	binds	binds	
B4				no binding
